Experimental data: PubChem BioAssay AID1508588 (Peter MacCallum Cancer Centre, 2020)
This is an unselected part of about 18,000 reagents tested. 790 of all reagents (4.4%) were called active. 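Calls rest on a combination of fold-change classes in drug and vehicle arms, not all shown here.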 Reagent sequences are not shown.

- Test: 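Which gene losses make BRAF-mutant melanoma cells more responsive to vemurafenib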 (primary screen)
- Cells: human WM266.4 melanoma cells (BRAF V600 mutant)
- Reagents: siRNA pool against human genes, 40 nM
- Timing: 96 h from transfection to read-out
- Challenge: vemurafenib 300 nM (about IC25), added 48 h after transfection, for 48 h; comparison arm got DMSO vehicle only
- Measurement: 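Ratios to non-targeting siRNA for cell gain, counted as DAPI nuclei after minus before drug and averaged over two replicates, and for absorbance-read medium lactate per cell; both binned into fold-change classes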
- Scale: cell gain with vemurafenib: higher = more cell gain than with non-targeting siRNA; lactate per cell with vemurafenib: higher = more lactate made per cell
- Call rule: 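Enhancement is called by pairing each knock-down's vehicle-arm and drug-arm fold-change classes for viability or glycolysis; which class combinations qualify is not given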
- Meaning of the calls: active = enhances vemurafenib effect; inactive = no enhancement seen

| target | cell gain with vemurafenib | lactate per cell with vemurafenib | outcome |
| --- | --- | --- | --- |
| ZNF544 | 0.6 | 0.88 | inactive |
| ICAM2 | 0.75 | 0.94 | inactive |
| HMCN2 | 0.82 | 0.87 | inactive |
| THAP7 | 0.5 | 1.33 | inactive |
| ZFYVE19 | 0.5 | 0.77 | inactive |
| SPAG8 | 0.93 | 0.58 | inactive |
| FAM221B | 0.16 | 1.76 | inactive |
| TCEAL4 | 1.04 | 0.4 | inactive |
| COX6A1 | 0.48 | 1.38 | inactive |
| SEC61A1 | 0.12 | 0.12 | active |
| CCDC121 | 0.59 | 0.12 | active |
| ADCY9 | 1.06 | 0.53 | inactive |
| ZNF263 | 1.19 | 0.9 | inactive |
| TTC13 | 0.28 | 1.84 | inactive |
| FXYD1 | 0.12 | 1.72 | inactive |
| RSL24D1 | 0.03 | 0.62 | inactive |
| ZNF680 | 0.71 | 1.13 | inactive |
| PLEKHN1 | 0.7 | 0.54 | inactive |
| PCDHA7 | 0.39 | 0.98 | inactive |
| SIGMAR1 | 0.27 | 1.04 | inactive |
| MINDY1 | 0.86 | 1.03 | inactive |
| TUBB2A | 0.07 | 1.49 | active |
| ZNF606 | 1.11 | 0.3 | inactive |
| SOX7 | 0.19 | 1.17 | inactive |
| CSRNP3 | 0.63 | 1.21 | inactive |
| SLC43A2 | 0.58 | 0.51 | inactive |
| INSL6 | 0.43 | 1.07 | inactive |
| TAPT1 | 0 | 3.6 | inactive |
| PASD1 | 0.75 | 0.86 | inactive |
| ACAD9 | 0.81 | 0.97 | inactive |
| METTL5 | 0.78 | 0.91 | inactive |
| GJB5 | 0.95 | 0.77 | inactive |
| MCUR1 | 1.08 | 0.63 | inactive |
| NFXL1 | 0.71 | 1.17 | inactive |
| DMBX1 | 0.5 | 0.92 | inactive |
| ELMO3 | 0.4 | 0.94 | inactive |
| NHLRC3 | 0.88 | 0.31 | inactive |
| SORL1 | 0.28 | 2.17 | inactive |
| MYH4 | 0.15 | 2.38 | inactive |
| SERPINB12 | 0.72 | 1.07 | inactive |
| SOST | 0.9 | 0.75 | inactive |
| PLG | 0.59 | 0.8 | inactive |
| SERINC2 | 0.26 | 1.27 | inactive |
| TCF20 | 1.3 | 0.55 | inactive |
| TRPC1 | -0.02 | 1.34 | inactive |
| RAC2 | 0.61 | 0.94 | inactive |
| LRFN5 | 0.72 | 0.48 | active |
| TACO1 | 0.58 | 0.9 | inactive |
| FBXO40 | 0.41 | 1.06 | inactive |
| NEMF | 0.29 | 0.74 | inactive |
| PSPH | 0.86 | 0.9 | inactive |
| PCDH18 | 1.23 | 0.6 | inactive |
| ARHGAP42 | 0.31 | 1.94 | inactive |
| GPR63 | 0.38 | 0.48 | active |
| SLC27A3 | 0.95 | 0.94 | inactive |
| CTAGE15 | 0.86 | 1.39 | inactive |
| IL11RA | 0.7 | 0.64 | inactive |
| TMEM190 | 0.4 | 0.66 | inactive |
| TP53I13 | 0.55 | 1.29 | inactive |
| CCDC141 | 0.84 | 0.78 | inactive |

Entries listed so far whose gene name begins with R or r:
| target | cell gain with vemurafenib | lactate per cell with vemurafenib | outcome |
| --- | --- | --- | --- |
| RSL24D1 | 0.03 | 0.62 | inactive |
| RAC2 | 0.61 | 0.94 | inactive |

Next entries follow.
| target | cell gain with vemurafenib | lactate per cell with vemurafenib | outcome |
| --- | --- | --- | --- |
| MSMB | 0.96 | 0.96 | inactive |
| LRIG3 | 1.39 | 0.7 | inactive |
| PSMG2 | 0.64 | 0.59 | inactive |
| GJA1 | 0.8 | 0.94 | inactive |
| KLK15 | 0.54 | 0.86 | inactive |
| TTC14 | 1.12 | 0.82 | inactive |
| ZNF707 | 0.81 | 1.05 | inactive |
| ADRA1D | 0.33 | 2.4 | inactive |
| OR5M9 | 0.77 | 0.72 | inactive |
| TBCB | 0.62 | 0.4 | active |
| SPOCK3 | 0.07 | 3.58 | inactive |
| NPPB | 0.73 | 0.7 | inactive |
| PRKDC | 0.26 | 1.29 | inactive |
| PTPN3 | 0.34 | 1.16 | inactive |
| CACNG3 | 0.93 | 0.71 | inactive |
| ALDH16A1 | 0.47 | 1.22 | inactive |
| TSPYL5 | 0.59 | 0.53 | inactive |
| IRX5 | 1.15 | 0.38 | inactive |
| RUMY4 | 0.95 | 0.76 | inactive |
| ANKH | 0.45 | 0.32 | inactive |
| COL18A1-AS1 | 0.18 | 1.36 | inactive |
| HDC | 0.45 | 0.92 | inactive |
| ZNF341 | 0.73 | 1.05 | inactive |
| ODR4 | 0.25 | 0.32 | active |
| SIRT5 | 0.98 | 0.82 | inactive |
| ARHGEF19 | 0.65 | 0.72 | inactive |
| ABCA8 | 0.9 | 0.8 | inactive |
| CIB4 | 0.74 | 0.65 | inactive |
| SH2D2A | 0.75 | 0.8 | inactive |
| MS4A6E | 0.38 | 1.43 | inactive |
| OR2A5 | 0.97 | 0.32 | inactive |
| FAM107A | 0.26 | 0.48 | active |
| F8 | 0.34 | 0.78 | inactive |
| MPRIP | 0.89 | 1.02 | inactive |
| NBPF11 | 0.89 | 0.38 | inactive |
| MORC4 | 0.7 | 0.53 | inactive |
| RPL29 | 0 | 0.12 | active |
| ASB10 | 1.08 | 0.48 | inactive |
| SHMT2 | 1.13 | 1.02 | inactive |
| ARPC1A | 0.41 | 0.55 | inactive |
| TNFRSF1B | 0.35 | 1.33 | inactive |
| SNX15 | 0.94 | 0.56 | inactive |
| MRPL24 | 0.49 | 0.84 | inactive |
| DNAAF5 | 0.82 | 0.74 | inactive |
| DIPK2A | 0.91 | 0.53 | inactive |
| RHOU | 0.75 | 1.27 | inactive |
| SH2D3C | -0.13 | 5.04 | inactive |
